Record: PubChem BioAssay AID504786 (Drosophila RNAi Screening Center, 2011)
In all, the deposit lists about 21,000 reagents; shown is an unselected part of those with a known target gene and a result. 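Primary screen; positive scores mean lost reporter signal, so the sign may be inverted from the usual convention.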 A plus sign joins genes that one reagent is predicted to hit. Further read-outs or replicates are left out here.

Assay: 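Fly genes required for HIF-dependent transcription when hypoxia is mimicked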 (primary screen)
Cell system: Drosophila S2 cells with a stable HIF luciferase reporter
Reagent: long dsRNA against Drosophila genes, about 0.2 µg dsRNA per well of a 384-well plate
Duration: three days of knock-down, then 20 h of DFO before reading
Treatment: desferrioxamine (DFO) at 100 µM, an iron chelator that mimics hypoxia, for 20 h
Read-out: 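HIF reporter luminescence in cells given 100 µM DFO for 20 h, using the mouse ldh-a hypoxia-response element, scored as per-plate z-scores; higher means greater loss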
Scale: z-score: higher = stronger loss of HIF reporter signal

| target gene | amplicon | z-score, replicate 1 | z-score, replicate 2 | z-score, replicate 3 |
| --- | --- | --- | --- | --- |
| bbc | DRSC06958 | -0.3 | -0.6 | -0.2 |
| Axud1 | DRSC00270 | -0.1 | -0.3 | – |
| CG10257 | DRSC05985 | -0.3 | -0.7 | – |
| RpL30 | DRSC02087 | 4.6 | 3.7 | – |
| Klp10A | DRSC19601 | -0.3 | -0.1 | – |
| Hr38 | DRSC03345 | 0 | 0.5 | – |
| dpr17 | DRSC12885 | 0.2 | -0.1 | – |
| dpr17 | DRSC14957 | 1.7 | -0.4 | – |
| dpr17 | DRSC14958 | -0.5 | -0.2 | – |
| CG3829 | DRSC04423 | -0.2 | -0.1 | – |
| Jhbp5 | DRSC14240 | -0.2 | -0.2 | – |
| CG7017 | DRSC10762 | -0.1 | 0 | – |
| BthD | DRSC19395 | 0 | 0.1 | – |
| CG4949 | DRSC19926 | -0.1 | -0.3 | – |
| Eig71Ef | DRSC11153 | -0.2 | -0.4 | – |
| CG11566 (retired record) + stg1 | DRSC20473 | -0.8 | -0.9 | – |
| CG11566 (retired record) + stg1 | DRSC20481 | 0.2 | 0.3 | – |
| CG11566 (retired record) + stg1 | DRSC20482 | -0.3 | -0.5 | – |
| CG11566 (retired record) + stg1 | DRSC20483 | -0.1 | -0.1 | – |
| CG14246 | DRSC14741 | -0.3 | -0.7 | 0.2 |
| CG6938 | DRSC10752 | 0 | 0.1 | – |
| Tsen2 | DRSC01557 | -0.5 | -0.1 | – |
| CG12926 | DRSC06239 | -0.4 | -0.6 | -0.4 |
| 14-3-3zeta | DRSC05028 | -0.2 | -0.1 | – |
| CAH5 | DRSC15372 | 0 | 0.1 | – |
| js | DRSC15004 | -0.5 | -0.4 | – |
| Tmf | DRSC18368 | -0.3 | -0.4 | – |
| CG15005 | DRSC08459 | -0.3 | -0.4 | – |
| Gr28a | DRSC02290 | -0.3 | -0.4 | – |
| DUBAI + Tmem18 | DRSC05344 | -0.3 | -0.2 | – |
| homer | DRSC03547 | -0.1 | -0.3 | – |
| NFAT | DRSC18991 | 0.5 | 0.4 | – |
| NFAT | DRSC19393 | 0 | 0.5 | – |
| p24-1 | DRSC19827 | -0.2 | -1.2 | – |
| ImpE1 | DRSC11195 | -0.2 | 0 | – |
| ImpE1 | DRSC11196 | -0.2 | 0.1 | – |
| kis | DRSC00521 | -0.3 | -0.4 | – |
| kis | DRSC00625 | 1.6 | 2 | – |
| kis | DRSC00823 | 1 | 1.7 | – |
| nsr | DRSC04427 | 0 | -0.2 | – |
| CG33784 | DRSC12764 | -0.4 | 0.2 | – |
| Pde9 | DRSC19746 | -0.2 | -0.4 | – |
| Pde9 | DRSC19874 | 0.1 | -0.5 | – |
| Pde9 | DRSC19875 | -0.1 | 0.2 | – |
| Pde9 | DRSC19876 | 0 | 0 | – |

An excerpt from above, reduced to “z-score, replicate 2”:
dpr17 [DRSC12885]: -0.1
dpr17 [DRSC14957]: -0.4
dpr17 [DRSC14958]: -0.2
CG3829 [DRSC04423]: -0.1
Jhbp5 [DRSC14240]: -0.2
CG7017 [DRSC10762]: 0
BthD [DRSC19395]: 0.1
CG4949 [DRSC19926]: -0.3
Eig71Ef [DRSC11153]: -0.4
CG11566 (retired record) + stg1 [DRSC20473]: -0.9

Further records:
| target gene | amplicon | z-score, replicate 1 | z-score, replicate 2 | z-score, replicate 3 |
| --- | --- | --- | --- | --- |
| CG15098 | DRSC06527 | 1.6 | 1.8 | – |
| Tango14 | DRSC00667 | -0.3 | -0.2 | – |
| mwh | DRSC08382 | -0.1 | -0.1 | – |
| CG16824 | DRSC02525 | -0.3 | -0.8 | – |
| ect | DRSC10675 | -0.3 | -0.7 | 0 |
| ect | DRSC11343 | -0.2 | -0.5 | – |
| CG33288 | DRSC11484 | -0.6 | -1.1 | – |
| CG12909 | DRSC06224 | -0.2 | -0.1 | – |
| Ugt35E2 | DRSC16083 | -0.1 | 0.1 | – |
| Ciz1 | DRSC09675 | 0.2 | 2.2 | – |
| CG4884 | DRSC15671 | -0.2 | 0.2 | – |
| CG15308 | DRSC17995 | -0.3 | -0.2 | – |
| Polr2E | DRSC06100 | 5.8 | 4 | – |
| Papss | DRSC11246 | -0.2 | 0.1 | – |
| jef | DRSC06198 | -0.3 | 0.1 | – |
| Prp5 | DRSC19975 | 0.2 | 0.7 | – |
| CG13539 | DRSC04181 | -0.4 | -0.4 | – |
| uncNacbeta | DRSC00326 | -0.1 | -0.6 | – |
| ccb | DRSC20501 | -0.2 | -0.9 | – |
| CG8312 | DRSC16406 | -0.2 | -0.4 | – |
| Desat2 | DRSC15919 | -0.4 | 0.7 | – |
| CG6972 | DRSC16159 | -0.4 | 0.5 | – |
| CG33474 | DRSC05218 | -0.2 | 0 | – |
| CG6659 | DRSC20003 | -0.3 | -0.7 | – |
| CG2070 | DRSC06814 | 0 | 1 | – |
| CG18004 | DRSC06705 | -0.4 | -0.1 | – |
| Cyt-c-p | DRSC03310 | -0.2 | 0.1 | – |
| CG14205 | DRSC19560 | -0.3 | 0.2 | – |
| CG4928 | DRSC19342 | -0.3 | -0.3 | – |
| CG31957 | DRSC00207 | -0.2 | -0.2 | – |
| CG34406 (retired record) | DRSC00523 | -0.3 | -0.7 | – |
| CG34406 (retired record) | DRSC00606 | -0.3 | 0.3 | – |
| spz4 | DRSC02410 | 0.5 | 0.1 | – |
| CG4074 | DRSC11752 | -0.3 | 0.4 | – |
| CG32582 (retired record) | DRSC19114 | -0.4 | -0.1 | – |
| side-IV | DRSC14833 | -0.1 | 0.4 | – |
| Gbp1 | DRSC06592 | -0.1 | -0.2 | – |
| EMC3 | DRSC02989 | 0.1 | 0.5 | – |
| scu | DRSC20369 | -0.4 | 0 | – |
| ss | DRSC17069 | -0.2 | -0.1 | – |
| Mrgn1 | DRSC20223 | 0.1 | 0.4 | – |
| PNUTS | DRSC00638 | -0.3 | -0.2 | – |
| CG2116 | DRSC18206 | -0.2 | -0.1 | – |
| CG34409 | DRSC14577 | -0.2 | -0.3 | – |
| Mis12 | DRSC10299 | 0.2 | 0.1 | – |
| Tak1 | DRSC20390 | -0.2 | -0.3 | – |
| Tak1 | DRSC20561 | -0.1 | -0.1 | – |
| Tak1 | DRSC20562 | 0.1 | 0.3 | – |
| Nepl15 | DRSC15630 | -0.2 | -0.1 | – |
| PIG-A | DRSC06982 | -0.2 | -0.5 | – |
| BORCS5 | DRSC19427 | -0.2 | -1.2 | – |
| Syn2 | DRSC06902 | -0.3 | -0.4 | – |
| CG14839 | DRSC14963 | -0.4 | -0.3 | – |
| TwdlJ | DRSC15812 | 0 | 0.4 | – |
| kermit | DRSC06074 | -0.2 | -0.4 | – |
| slp2 | DRSC00836 | -0.3 | -0.2 | – |
| CG7094 | DRSC03005 | -0.2 | -0.1 | – |
| bru3 | DRSC09280 | -0.4 | -0.5 | -0.3 |
| bru3 | DRSC09687 | -0.3 | -0.1 | – |
| bru3 | DRSC09887 | -0.2 | 0.2 | – |
| CG1360 | DRSC06406 | -0.4 | -0.5 | – |
